In article PMC9452783:
No constants are given. Whether binding was seen depends on the method and setting. Binding seen in cells or lysates may run through a third protein. Some binding calls cover weakened binding; strength is not graded here. Tags and fused reporters may be left off the sequences shown.

Sequences of proteins named here, by UniProt entry; tags and fusion partners are left off.
UniProt P54132: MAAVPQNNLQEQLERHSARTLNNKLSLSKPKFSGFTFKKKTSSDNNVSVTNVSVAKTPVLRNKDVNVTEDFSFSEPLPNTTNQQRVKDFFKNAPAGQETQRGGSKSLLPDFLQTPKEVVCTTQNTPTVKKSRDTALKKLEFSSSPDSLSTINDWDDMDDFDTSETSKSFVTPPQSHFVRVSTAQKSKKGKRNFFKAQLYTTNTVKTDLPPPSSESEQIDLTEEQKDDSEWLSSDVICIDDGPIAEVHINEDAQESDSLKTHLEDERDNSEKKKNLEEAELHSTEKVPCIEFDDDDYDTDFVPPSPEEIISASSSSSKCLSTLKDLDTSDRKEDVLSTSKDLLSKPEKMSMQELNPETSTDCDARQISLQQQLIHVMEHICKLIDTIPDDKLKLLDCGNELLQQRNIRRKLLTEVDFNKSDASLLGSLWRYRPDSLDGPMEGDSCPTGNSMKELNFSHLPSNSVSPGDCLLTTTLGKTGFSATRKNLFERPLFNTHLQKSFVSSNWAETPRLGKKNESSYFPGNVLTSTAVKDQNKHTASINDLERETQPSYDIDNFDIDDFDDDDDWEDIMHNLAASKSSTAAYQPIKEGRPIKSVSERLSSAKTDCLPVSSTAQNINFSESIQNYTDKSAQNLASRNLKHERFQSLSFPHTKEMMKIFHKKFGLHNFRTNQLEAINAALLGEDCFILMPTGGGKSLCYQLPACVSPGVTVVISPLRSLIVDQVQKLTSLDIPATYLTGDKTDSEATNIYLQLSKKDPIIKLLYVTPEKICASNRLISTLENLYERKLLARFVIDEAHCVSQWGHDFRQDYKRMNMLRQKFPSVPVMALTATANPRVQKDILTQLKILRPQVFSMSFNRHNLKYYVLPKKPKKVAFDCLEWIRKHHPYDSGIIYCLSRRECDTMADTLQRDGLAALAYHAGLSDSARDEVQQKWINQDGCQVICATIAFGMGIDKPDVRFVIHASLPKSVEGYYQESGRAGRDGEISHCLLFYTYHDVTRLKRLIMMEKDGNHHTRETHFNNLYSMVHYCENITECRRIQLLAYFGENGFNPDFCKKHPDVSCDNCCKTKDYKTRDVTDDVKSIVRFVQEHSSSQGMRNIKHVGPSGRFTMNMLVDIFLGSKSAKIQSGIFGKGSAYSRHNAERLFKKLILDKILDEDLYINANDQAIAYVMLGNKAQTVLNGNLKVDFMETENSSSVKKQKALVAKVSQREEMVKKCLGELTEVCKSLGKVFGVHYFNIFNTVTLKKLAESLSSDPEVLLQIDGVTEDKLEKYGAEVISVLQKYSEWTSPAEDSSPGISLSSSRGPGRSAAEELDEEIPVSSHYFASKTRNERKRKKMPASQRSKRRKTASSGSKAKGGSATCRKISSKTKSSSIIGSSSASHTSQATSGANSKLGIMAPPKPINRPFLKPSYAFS
UniProt P53350: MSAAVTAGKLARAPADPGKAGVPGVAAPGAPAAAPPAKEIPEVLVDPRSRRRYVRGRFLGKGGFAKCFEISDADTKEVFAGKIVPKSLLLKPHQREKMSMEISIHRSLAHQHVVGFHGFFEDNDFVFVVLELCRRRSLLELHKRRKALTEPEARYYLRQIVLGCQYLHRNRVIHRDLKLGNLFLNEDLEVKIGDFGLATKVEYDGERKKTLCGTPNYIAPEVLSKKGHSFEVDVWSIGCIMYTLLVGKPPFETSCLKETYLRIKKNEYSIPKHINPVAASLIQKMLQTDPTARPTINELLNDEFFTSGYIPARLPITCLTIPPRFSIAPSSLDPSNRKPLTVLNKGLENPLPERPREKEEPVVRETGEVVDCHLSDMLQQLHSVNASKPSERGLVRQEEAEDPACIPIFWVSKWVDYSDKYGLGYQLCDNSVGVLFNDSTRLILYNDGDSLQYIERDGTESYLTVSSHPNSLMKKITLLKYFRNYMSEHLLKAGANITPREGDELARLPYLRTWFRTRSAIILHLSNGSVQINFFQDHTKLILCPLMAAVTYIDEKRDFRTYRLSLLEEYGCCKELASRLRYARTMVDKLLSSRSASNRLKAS

What was measured:
Assay in all cases: co-IP; 293T cells cotransfected with Flag- and His-tagged constructs; IP with anti-Flag ("indicated antibodies" for Figures 5A, 7C, 7D), western blot with anti-His and anti-Flag; some panels with or without 2 μM CPT for 1 h, or with MG132 (20 μM, 3 h) and NETN lysis
Flag-CtIP K426A (human) = biological target: T1, Flag-CtIP K426A (human) (UniProt Q99708)
T1 sequence: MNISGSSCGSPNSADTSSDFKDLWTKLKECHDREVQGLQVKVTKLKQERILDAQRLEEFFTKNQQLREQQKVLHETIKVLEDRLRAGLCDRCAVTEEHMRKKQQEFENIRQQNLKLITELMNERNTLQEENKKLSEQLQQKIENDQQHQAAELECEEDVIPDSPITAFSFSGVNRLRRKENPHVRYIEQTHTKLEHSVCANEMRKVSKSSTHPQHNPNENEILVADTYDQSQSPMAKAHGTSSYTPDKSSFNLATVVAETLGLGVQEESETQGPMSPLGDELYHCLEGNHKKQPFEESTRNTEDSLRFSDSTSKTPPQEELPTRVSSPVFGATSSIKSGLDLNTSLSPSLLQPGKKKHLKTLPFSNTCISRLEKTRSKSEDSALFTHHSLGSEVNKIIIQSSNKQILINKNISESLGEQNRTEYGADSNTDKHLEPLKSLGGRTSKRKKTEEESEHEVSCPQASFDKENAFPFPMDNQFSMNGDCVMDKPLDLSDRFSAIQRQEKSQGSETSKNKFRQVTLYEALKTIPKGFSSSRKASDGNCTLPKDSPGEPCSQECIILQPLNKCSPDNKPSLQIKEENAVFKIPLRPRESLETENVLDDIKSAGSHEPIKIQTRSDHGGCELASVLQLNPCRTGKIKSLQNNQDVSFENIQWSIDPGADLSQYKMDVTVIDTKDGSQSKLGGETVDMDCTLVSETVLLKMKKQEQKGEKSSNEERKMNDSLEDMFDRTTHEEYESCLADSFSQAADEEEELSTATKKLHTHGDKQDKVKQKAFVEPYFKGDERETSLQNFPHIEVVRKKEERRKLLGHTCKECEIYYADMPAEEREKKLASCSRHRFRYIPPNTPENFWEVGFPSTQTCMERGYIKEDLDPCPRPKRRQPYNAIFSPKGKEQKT

Flag-PPIL2 1-240 = biological target: T2, Flag-PPIL2 1-240 (UniProt Q13356)
T2 sequence: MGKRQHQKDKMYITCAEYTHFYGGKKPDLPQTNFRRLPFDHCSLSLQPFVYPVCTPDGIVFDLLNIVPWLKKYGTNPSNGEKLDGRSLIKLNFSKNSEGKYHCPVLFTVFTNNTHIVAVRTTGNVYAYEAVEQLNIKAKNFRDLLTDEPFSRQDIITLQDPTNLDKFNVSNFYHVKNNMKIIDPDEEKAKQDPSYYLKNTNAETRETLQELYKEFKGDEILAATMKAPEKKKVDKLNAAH

Flag-PPIL2 241-520 = biological target: T3, Flag-PPIL2 241-520 (UniProt Q13356)
T3 sequence: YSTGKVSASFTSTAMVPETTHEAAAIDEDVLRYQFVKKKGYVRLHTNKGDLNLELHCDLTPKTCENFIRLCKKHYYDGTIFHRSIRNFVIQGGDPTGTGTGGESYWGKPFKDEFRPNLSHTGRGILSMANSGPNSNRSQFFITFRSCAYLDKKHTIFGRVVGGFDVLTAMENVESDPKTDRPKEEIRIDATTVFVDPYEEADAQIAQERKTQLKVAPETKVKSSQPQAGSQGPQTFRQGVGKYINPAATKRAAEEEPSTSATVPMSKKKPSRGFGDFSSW

Substance | binding (Flag-CtIP K426A (human)) | binding (Flag-PPIL2 1-240) | binding (Flag-PPIL2 241-520)
His-BLM (from UniProt P54132 1-1417) (enzyme) | binds |  | 
His-PLK1 (expressed in 293T cells) (from UniProt P53350 1-603) (enzyme) |  | binds | binds
